Values from PubChem BioAssay AID1259308 (NCATS, 2017).
This is a random part of about 59,000 reagents tested. In the full data, about 1,510 (2.6%) got an active call. 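Calls use total luciferase alone and ignore viability, so some active siRNAs may act by altering cell number.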

Assay: 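Knock-downs that increase output of a recombinant reporter protein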 (primary screen)
Cell system: human HEK293 embryonic kidney cells stably expressing firefly luciferase (HEK-CMV-Luc2-Hygro)
Knock-down reagent: single siRNA against human genes, 0.8 pmol siRNA per well
Duration: 72 h
Read-out: 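Luciferase light (ONE-Glo) measured on one replicate plate set and viability (CellTiter-Glo) on the other, scaled to a negative control siRNA, with robust z-scores and luciferase per cell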
Reading the numbers: total luciferase, z-score and total luciferase, % of control: higher = more reporter protein produced; luciferase per cell, z-score: higher = more reporter output per viable cell; viable cells, % of control: higher = more viable cells
Active means: 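Active when the median/MAD z-score for overall luciferase is greater than 3; a gene was taken forward for validation with new siRNAs if at least two of its three siRNAs passed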
Calls: active = raised luciferase; inactive = no rise

The opening 6 records, ahead of the listing:
target gene | PubChem SID | total luciferase, z-score | total luciferase, % of control | luciferase per cell, z-score | viable cells, % of control | activity call
GPATCH2L | SID160744050 | -0.345 | 75 | -0.219 | 88.8 | inactive
GPATCH2L | SID160744051 | -0.0693 | 80.5 | -0.299 | 97.3 | inactive
GPATCH2L | SID160744052 | -0.227 | 77.4 | 0.00415 | 86.4 | inactive
SPANXN3 | SID160757648 | 2.56 | 133 | 1.85 | 91.1 | inactive
SPANXN3 | SID160757649 | 0.907 | 99.9 | 1.08 | 84.1 | inactive
SPANXN3 | SID160757650 | 0.101 | 83.9 | 0.0935 | 91.5 | inactive

The list itself, from the first entry:
target gene | PubChem SID | total luciferase, z-score | total luciferase, % of control | luciferase per cell, z-score | viable cells, % of control | activity call
GPATCH2L | SID160744050 | -0.345 | 75 | -0.219 | 88.8 | inactive
GPATCH2L | SID160744051 | -0.0693 | 80.5 | -0.299 | 97.3 | inactive
GPATCH2L | SID160744052 | -0.227 | 77.4 | 0.00415 | 86.4 | inactive
SPANXN3 | SID160757648 | 2.56 | 133 | 1.85 | 91.1 | inactive
SPANXN3 | SID160757649 | 0.907 | 99.9 | 1.08 | 84.1 | inactive
SPANXN3 | SID160757650 | 0.101 | 83.9 | 0.0935 | 91.5 | inactive
OR7C1 | SID160738131 | -1.84 | 45.2 | -1.43 | 73.7 | inactive
OR7C1 | SID160738132 | 0.512 | 92.1 | 0.436 | 91.7 | inactive
OR7C1 | SID160738133 | -0.583 | 70.3 | -0.238 | 83.6 | inactive
H2BC13 | SID160724144 | -0.0631 | 80.6 | -0.216 | 95.4 | inactive
H2BC13 | SID160724145 | -2.06 | 40.9 | -2.59 | 90.5 | inactive
H2BC13 | SID160724146 | 0.433 | 90.5 | 0.243 | 94.9 | inactive
CBFA2T2 | SID160721570 | 1.34 | 109 | 1.09 | 91.1 | inactive
CBFA2T2 | SID160721571 | 1.68 | 115 | 1.71 | 82.1 | inactive
CBFA2T2 | SID160721572 | 1.02 | 102 | 2.02 | 67.1 | inactive
DNAH3 | SID160743806 | 1.31 | 108 | 0.932 | 94.4 | inactive
DNAH3 | SID160743808 | -1.47 | 52.7 | -1.57 | 89 | inactive
DNAH3 | SID160743809 | -0.139 | 79.1 | -0.0689 | 90 | inactive
ATG16L2 | SID160753457 | 2.26 | 127 | 0.915 | 111 | inactive
ATG16L2 | SID160753458 | 0.222 | 86.3 | -0.105 | 99.1 | inactive
ATG16L2 | SID160753459 | -0.857 | 64.8 | -0.839 | 90.4 | inactive
TCEA1 | SID160717769 | -0.5 | 71.9 | -0.935 | 103 | inactive
TCEA1 | SID160717770 | -0.0878 | 80.1 | 0.0226 | 89 | inactive
TCEA1 | SID160717771 | -0.0135 | 81.6 | 0.996 | 70.2 | inactive
SLC35A3 | SID160736299 | -0.597 | 70 | -0.875 | 98.5 | inactive
SLC35A3 | SID160736300 | 0.0826 | 83.5 | 0.0367 | 92.4 | inactive
SLC35A3 | SID160736301 | 0.502 | 91.9 | 0.396 | 92.5 | inactive
SUB1P1 | SID160772273 | -0.913 | 63.7 | -1.03 | 93.4 | inactive
SUB1P1 | SID160772274 | -0.519 | 71.6 | -0.349 | 87.7 | inactive
SUB1P1 | SID160772275 | 0.655 | 94.9 | 0.656 | 89.3 | inactive
SULT1C3 | SID160768117 | 0.24 | 86.7 | 0.958 | 75.2 | inactive
SULT1C3 | SID160768118 | 0.288 | 87.6 | 0.119 | 94.9 | inactive
SULT1C3 | SID160768119 | -0.297 | 76 | 0.443 | 75.5 | inactive
AKT2 | SID160716031 | 0.779 | 97.4 | 0.769 | 88.9 | inactive
AKT2 | SID160716045 | -0.856 | 64.9 | -0.67 | 86.5 | inactive
AKT2 | SID160730770 | 0.235 | 86.6 | 0.118 | 93.8 | inactive
XRRA1 | SID160758048 | -0.233 | 77.3 | 0.0836 | 84.5 | inactive
XRRA1 | SID160758049 | -0.218 | 77.6 | 0.358 | 78.9 | inactive
XRRA1 | SID160758050 | 0.46 | 91 | 0.0438 | 101 | inactive
TAS2R9 | SID160739739 | 1.2 | 106 | 0.531 | 103 | inactive
TAS2R9 | SID160739740 | 0.0297 | 82.5 | -0.138 | 95.6 | inactive
TAS2R9 | SID160739741 | -0.767 | 66.6 | -0.904 | 94.5 | inactive
MSX1 | SID160731249 | 0.629 | 94.4 | 0.361 | 95.9 | inactive
MSX1 | SID160777494 | -0.282 | 76.3 | -0.996 | 111 | inactive
MSX1 | SID160777495 | 0.523 | 92.3 | -0.185 | 108 | inactive
PRSS8 | SID160715116 | -1.36 | 54.8 | -1.61 | 93.5 | inactive
PRSS8 | SID160715117 | 1.23 | 106 | 0.754 | 97.5 | inactive
PRSS8 | SID160715118 | -0.395 | 74 | 0.114 | 80.3 | inactive
E2F2 | SID160757562 | -0.0407 | 81.1 | -0.477 | 103 | inactive
E2F2 | SID160757573 | 0.921 | 100 | 2.13 | 63.9 | inactive
E2F2 | SID160757584 | -0.385 | 74.2 | -0.148 | 86.2 | inactive
FBXO17 | SID160755178 | 4.63 | 174 | 2.4 | 103 | active
FBXO17 | SID160755179 | 0.283 | 87.5 | 1.17 | 72 | inactive
FBXO17 | SID160755180 | -0.975 | 62.5 | -0.688 | 83.7 | inactive
WDR36 | SID160757340 | 2.59 | 133 | 1.86 | 91.2 | inactive
WDR36 | SID160757341 | -0.828 | 65.4 | -0.287 | 78.8 | inactive
WDR36 | SID160757342 | -0.589 | 70.2 | -0.669 | 93.5 | inactive
SLITRK4 | SID160757644 | -0.245 | 77 | -0.316 | 93.5 | inactive
SLITRK4 | SID160757645 | -1.37 | 54.7 | -1.32 | 86.5 | inactive
SLITRK4 | SID160757646 | -0.0544 | 80.8 | 0.0451 | 89.2 | inactive
SURF4 | SID160717559 | 0.279 | 87.4 | 1.59 | 64.2 | inactive
SURF4 | SID160717561 | -0.361 | 74.7 | -0.598 | 97.7 | inactive
SURF4 | SID160734203 | -1.19 | 58.2 | -1.15 | 88.2 | inactive
SLC10A5 | SID160764925 | 1.05 | 103 | 0.695 | 95.7 | inactive
SLC10A5 | SID160764926 | 0.0803 | 83.5 | -0.251 | 99.7 | inactive
SLC10A5 | SID160764927 | 1.8 | 118 | 1.17 | 96.6 | inactive
PSG5 | SID160715152 | -0.588 | 70.2 | 0.328 | 72 | inactive
PSG5 | SID160715154 | -1.97 | 42.7 | -1.18 | 65.1 | inactive
PSG5 | SID160715155 | -0.823 | 65.5 | -0.508 | 83.7 | inactive
TMEM63B | SID160743641 | -0.124 | 79.4 | 0.481 | 78.2 | inactive
TMEM63B | SID160743642 | 1.2 | 106 | 0.432 | 105 | inactive
TMEM63B | SID160743643 | -0.439 | 73.2 | -0.561 | 94.7 | inactive
IMPACT | SID160743647 | -0.393 | 74.1 | -0.379 | 91.5 | inactive
IMPACT | SID160743648 | -0.35 | 74.9 | -0.0418 | 84.7 | inactive
IMPACT | SID160743649 | -0.275 | 76.4 | -0.694 | 102 | inactive
